For experiment [1], the target named is OsPEL1-Cv (BiFC fusion) (rice (Oryza sativa)). Kind of experiment: split reporter; BiFC with N- and C-terminal halves of YFP in NT rice protoplasts, NLS-RFP cotransfected, confocal microscopy.
Experiment [2] has as its target OsPEL1-C-Luc (split-luciferase fusion) (rice (Oryza sativa)). Kind of experiment: split reporter; split-luciferase in planta: N-Luc and C-Luc fusions agroinfiltrated into tobacco leaves, 2 mM luciferin.

No constants are given. Whether binding was seen depends on the method and setting. Binding seen in cells or lysates may run through a third protein. Binding can be weak; no strength is given. Tags and fused reporters may be left off the sequences shown.

B1: OsGLK1-Nv (BiFC fusion) (protein, UniProt Q5Z5I4 1-455)
chain: MLAVSPAMCPDIEDRAAVAGDAGMEVVGMSSDDMDQFDFSVDDIDFGDFFLRLEDGDVLPDLEVDPAEIFTDFEAIATSGGEGVQDQEVPTVELLAPADDVGVLDPCGDVVVGEENAAFAGAGEEKGGCNQDDDAGEANVDDGAAAVEAKSSSPSSTTSSSQEAESRHKSSSKSSHGKKKAKVDWTPELHRRFVQAVEQLGIDKAVPSRILEIMGIDSLTRHNIASHLQKYRSHRKHMIAREAEAASWTQRRQIYAAGGGAVAKRPESNAWTVPTIGFPPPPPPPPSPAPIQHFARPLHVWGHPTMDPSRVPVWPPRHLVPRGPAPPWVPPPPPSDPAFWHHPYMRGPAHVPTQGTPCMAMPMPAARFPAPPVPGVVPCPMYRPLTPPALASKNQQDAQLQLQVQPSSESIDAAIGDVLSKPWLPLPLGLKPPSVDSVMGELQRQGVANVPPACG
Take B1: the binding result in experiment [1] was “binds”.

B2: OsGLK1-N-Luc (split-luciferase fusion) (protein, UniProt Q5Z5I4 1-455)
chain: MLAVSPAMCPDIEDRAAVAGDAGMEVVGMSSDDMDQFDFSVDDIDFGDFFLRLEDGDVLPDLEVDPAEIFTDFEAIATSGGEGVQDQEVPTVELLAPADDVGVLDPCGDVVVGEENAAFAGAGEEKGGCNQDDDAGEANVDDGAAAVEAKSSSPSSTTSSSQEAESRHKSSSKSSHGKKKAKVDWTPELHRRFVQAVEQLGIDKAVPSRILEIMGIDSLTRHNIASHLQKYRSHRKHMIAREAEAASWTQRRQIYAAGGGAVAKRPESNAWTVPTIGFPPPPPPPPSPAPIQHFARPLHVWGHPTMDPSRVPVWPPRHLVPRGPAPPWVPPPPPSDPAFWHHPYMRGPAHVPTQGTPCMAMPMPAARFPAPPVPGVVPCPMYRPLTPPALASKNQQDAQLQLQVQPSSESIDAAIGDVLSKPWLPLPLGLKPPSVDSVMGELQRQGVANVPPACG
B2: the binding entry in experiment [2] was “binds”.
